# Laboratory results taken from the supplement of paper PMC11438910.
# The other results are listed elsewhere or left out. The signal is at background level for most entries.
# Legend:
# Experiment in all cases: fluorescence intensity of antibody binding to polysaccharide-coupled beads; higher = stronger binding
# [1] = target: pneumococcal polysaccharide Pn22A
# [2] = target: pneumococcal polysaccharide Pn22F
# [3] = target: pneumococcal polysaccharide Pn23A
# [4] = target: pneumococcal polysaccharide Pn23B
# [5] = target: pneumococcal polysaccharide Pn23F
# [6] = target: pneumococcal polysaccharide Pn24A
# [7] = target: pneumococcal polysaccharide Pn24B
# [8] = target: pneumococcal polysaccharide Pn24F
# [9] = target: pneumococcal polysaccharide Pn25A
# [10] = target: pneumococcal polysaccharide Pn25F
# [11] = target: pneumococcal polysaccharide Pn27
# [12] = target: pneumococcal polysaccharide Pn28A
# [13] = antibody concentration 81.7561 ng/mL
# [14] = antibody concentration 437.17 ng/mL
# [15] = antibody concentration 2337.65 ng/mL
# [16] = antibody concentration 12500 ng/mL
# [17] = antibody concentration 0.1 ng/mL
# [18] = antibody concentration 0.534724 ng/mL
# [19] = antibody concentration 2.8593 ng/mL
# [20] = antibody concentration 15.2894 ng/mL
binder,measurement,setting,value
4-99.2 (protein) chain 1: QVQLQESGPGLVKPSETLSLTCAVSGYSIRSAYEWGWIRQPPGKGLEYIGYISGESGNTYYSPSLKSRVTISRDTSKNQFSLRLSSVTAADSAVYYCARRGQLIGFDFWGQGVLVTVSS chain 2: QAAPTQPPSVSGSPGQSVTISCTGTSSDIGYYNAVSWYQHLPGKAPKLMIYEVSKRPSGVSDRFSGSKSGNTASLTISGLQAEDEADYYCSSYAGSNTYIFGAGTRLTVL,fluorescence intensity,[1]; [13],23 MFI
same,fluorescence intensity,[1]; [14],23.5 MFI
same,fluorescence intensity,[1]; [15],22 MFI
same,fluorescence intensity,[1]; [16],34.5 MFI
same,fluorescence intensity,[2]; [17],30.5 MFI
same,fluorescence intensity,[2]; [18],27.8 MFI
same,fluorescence intensity,[2]; [19],32 MFI
same,fluorescence intensity,[2]; [20],30.5 MFI
same,fluorescence intensity,[2]; [13],30 MFI
same,fluorescence intensity,[2]; [14],31.5 MFI
same,fluorescence intensity,[2]; [15],32.8 MFI
same,fluorescence intensity,[2]; [16],33.8 MFI
same,fluorescence intensity,[3]; [17],22.5 MFI
same,fluorescence intensity,[3]; [18],25.2 MFI
same,fluorescence intensity,[3]; [19],22.5 MFI
same,fluorescence intensity,[3]; [20],22.8 MFI
same,fluorescence intensity,[3]; [13],21.5 MFI
same,fluorescence intensity,[3]; [14],26.2 MFI
same,fluorescence intensity,[3]; [15],30.2 MFI
same,fluorescence intensity,[3]; [16],49 MFI
same,fluorescence intensity,[4]; [17],28.8 MFI
same,fluorescence intensity,[4]; [18],29.5 MFI
same,fluorescence intensity,[4]; [19],29.5 MFI
same,fluorescence intensity,[4]; [20],27.5 MFI
same,fluorescence intensity,[4]; [13],30.5 MFI
same,fluorescence intensity,[4]; [14],29.5 MFI
same,fluorescence intensity,[4]; [15],33 MFI
same,fluorescence intensity,[4]; [16],35 MFI
same,fluorescence intensity,[5]; [17],16.5 MFI
same,fluorescence intensity,[5]; [18],18 MFI
same,fluorescence intensity,[5]; [19],17.5 MFI
same,fluorescence intensity,[5]; [20],17 MFI
same,fluorescence intensity,[5]; [13],16.5 MFI
same,fluorescence intensity,[5]; [14],19.5 MFI
same,fluorescence intensity,[5]; [15],18 MFI
same,fluorescence intensity,[5]; [16],26.5 MFI
same,fluorescence intensity,[6]; [17],15 MFI
same,fluorescence intensity,[6]; [18],16.8 MFI
same,fluorescence intensity,[6]; [19],15 MFI
same,fluorescence intensity,[6]; [20],14.8 MFI
same,fluorescence intensity,[6]; [13],13.5 MFI
same,fluorescence intensity,[6]; [14],15.2 MFI
same,fluorescence intensity,[6]; [15],17 MFI
same,fluorescence intensity,[6]; [16],20.2 MFI
same,fluorescence intensity,[7]; [17],16.5 MFI
same,fluorescence intensity,[7]; [18],18.2 MFI
same,fluorescence intensity,[7]; [19],17 MFI
same,fluorescence intensity,[7]; [20],18.5 MFI
same,fluorescence intensity,[7]; [13],17.5 MFI
same,fluorescence intensity,[7]; [14],18.5 MFI
same,fluorescence intensity,[7]; [15],20 MFI
same,fluorescence intensity,[7]; [16],31.5 MFI
same,fluorescence intensity,[8]; [17],16 MFI
same,fluorescence intensity,[8]; [18],19 MFI
same,fluorescence intensity,[8]; [19],15.5 MFI
same,fluorescence intensity,[8]; [20],16 MFI
same,fluorescence intensity,[8]; [13],17 MFI
same,fluorescence intensity,[8]; [14],19.2 MFI
same,fluorescence intensity,[8]; [15],19.5 MFI
same,fluorescence intensity,[8]; [16],32.2 MFI
same,fluorescence intensity,[9]; [17],22.8 MFI
same,fluorescence intensity,[9]; [18],21.5 MFI
same,fluorescence intensity,[9]; [19],24 MFI
same,fluorescence intensity,[9]; [20],22 MFI
same,fluorescence intensity,[9]; [13],22 MFI
same,fluorescence intensity,[9]; [14],24.5 MFI
same,fluorescence intensity,[9]; [15],24.5 MFI
same,fluorescence intensity,[9]; [16],31 MFI
same,fluorescence intensity,[10]; [17],29 MFI
same,fluorescence intensity,[10]; [18],29.5 MFI
same,fluorescence intensity,[10]; [19],30.5 MFI
same,fluorescence intensity,[10]; [20],30 MFI
same,fluorescence intensity,[10]; [13],28 MFI
same,fluorescence intensity,[10]; [14],28.5 MFI
same,fluorescence intensity,[10]; [15],29.5 MFI
same,fluorescence intensity,[10]; [16],37 MFI
same,fluorescence intensity,[11]; [17],16 MFI
same,fluorescence intensity,[11]; [18],15.5 MFI
same,fluorescence intensity,[11]; [19],17 MFI
same,fluorescence intensity,[11]; [20],16.5 MFI
same,fluorescence intensity,[11]; [13],15.5 MFI
same,fluorescence intensity,[11]; [14],17.5 MFI
same,fluorescence intensity,[11]; [15],20.5 MFI
same,fluorescence intensity,[11]; [16],54.5 MFI
same,fluorescence intensity,[12]; [17],24.5 MFI
same,fluorescence intensity,[12]; [18],24.5 MFI
same,fluorescence intensity,[12]; [19],25 MFI
same,fluorescence intensity,[12]; [20],27 MFI
same,fluorescence intensity,[12]; [13],25.2 MFI
same,fluorescence intensity,[12]; [14],26.5 MFI

# 4 records picked at random from the list so far, as already listed:
binder,measurement,setting,value
4-99.2 (protein) chain 1: QVQLQESGPGLVKPSETLSLTCAVSGYSIRSAYEWGWIRQPPGKGLEYIGYISGESGNTYYSPSLKSRVTISRDTSKNQFSLRLSSVTAADSAVYYCARRGQLIGFDFWGQGVLVTVSS chain 2: QAAPTQPPSVSGSPGQSVTISCTGTSSDIGYYNAVSWYQHLPGKAPKLMIYEVSKRPSGVSDRFSGSKSGNTASLTISGLQAEDEADYYCSSYAGSNTYIFGAGTRLTVL,fluorescence intensity,[9]; [19],24 MFI
same,fluorescence intensity,[10]; [17],29 MFI
same,fluorescence intensity,[5]; [16],26.5 MFI
same,fluorescence intensity,[12]; [18],24.5 MFI
